No constants are given. Whether binding was seen depends on the method and setting. Binding seen in cells or lysates may run through a third protein. A yes stands for co-enrichment or nearness to the bait. Other partners may have been found.
Biological target: Arabidopsis thaliana VPS13a fused to Venus (AtVPS13a:Venus) (Arabidopsis thaliana)
Assay: affinity purification with mass spectrometry; co-immunopurification (co-IP) of crude pollen proteins from the GT-AtVPS13a:Venus line; wild type as control; proteins uniquely detected in the AtVPS13a:Venus fraction listed

The chains behind the UniProt entries cited, without tags or fusion partners. Where a name states a change or a piece, a line headed by the entry shows the natural chain unless it says otherwise.
UniProt Q9SW41: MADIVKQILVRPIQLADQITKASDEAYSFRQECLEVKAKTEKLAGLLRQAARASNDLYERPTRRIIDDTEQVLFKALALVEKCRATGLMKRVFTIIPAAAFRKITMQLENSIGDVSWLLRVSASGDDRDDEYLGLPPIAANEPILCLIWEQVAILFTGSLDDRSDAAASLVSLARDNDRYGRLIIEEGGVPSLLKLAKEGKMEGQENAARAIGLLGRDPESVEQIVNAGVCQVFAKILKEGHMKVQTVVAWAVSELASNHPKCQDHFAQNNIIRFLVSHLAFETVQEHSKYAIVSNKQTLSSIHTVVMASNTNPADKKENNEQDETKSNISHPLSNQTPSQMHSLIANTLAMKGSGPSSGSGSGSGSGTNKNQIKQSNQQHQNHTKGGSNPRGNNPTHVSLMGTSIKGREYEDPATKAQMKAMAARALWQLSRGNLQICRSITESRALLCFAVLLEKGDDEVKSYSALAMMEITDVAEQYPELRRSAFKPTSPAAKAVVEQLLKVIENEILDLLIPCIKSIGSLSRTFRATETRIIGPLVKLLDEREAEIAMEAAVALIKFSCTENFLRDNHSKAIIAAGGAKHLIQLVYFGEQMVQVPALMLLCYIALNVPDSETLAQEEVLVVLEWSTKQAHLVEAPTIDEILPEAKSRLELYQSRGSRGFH

| binding | Molecule |
| --- | --- |
| binds | Armadillo Repeat Only1 (ARO1) (from UniProt Q9SW41) |
| binds | exocyst complex subunit SEC8 (protein, UniProt Q93YU5 1-1053) MGIFNGLPVPSDKTYLREELARIDESWAAARFDSLPHVVHILTSKDREADIHILKEQSDVVEEVVDEVVHAYHGGFNKAIQNYSQILRLFSESTEKIGDLKHDLAEAKQSLGARNKQLHQLWYRSVTLRHIISLLDQIEGIAKVPSRIEKLIADKQFYAAIQVYLQSSLMLEREGLQTVGALQDVRSELTKLRGALFFKILDDLHAHLYNRGEYSSVASSIYERDDEVPTTTAVAASRMSSQPLSRRTRTLKGDSQFGVRGLTNGSYRTASNDESSSFDGHDEEDSVEHDESTADTARNGTDSKLLSHQLPPWLSDSTPDEFIEAVRKSDDPLHVKYLQTLVQCLCMLGKVAAAGAIICQKLRPTIHEIIISKIKAHLETTNLSKSACSQGDRSVAAGLHLIKGQSEAYRLSKEKPQNGISNSGTHLAVSPVSPLMAPGGKAQAAAKELLDSILDTIVKIFENHVVIGELLEMKASQHDINTPRSLPTDVNWNTESEASQATGGYTISFPLTVLQSECQQLICEILRATPEAASADAAAQTAKLAKKAPKKDKRDAPEDGLTFTFRFTDATVSISNQGADLIRQGWGKRAPNASLEGYGSAAVLPEQGIYLAASIYRPVLQFTDKITSMLPKKHSQLVNDGLLTFTENFVKDHLLPTMFVDYRKGVQQAISSAAAFRPRAHTTTYTATVEKGRPILQGLLAIDLLAKEVLGWAQAMPKFATDLVKYVQTFLERTFERCRTSYMEAVLEKLSYMLIGRHDIEKLMRLDAASACLPSTLGHAVSHSEAVGTEVELSDLFLSLRPIKQDNLIRDDNKLILLASLSDSLEYVADSIERLGQAVPRVASQAEGNSRNQAASPRNLASFADEYRKLATDCLKVLRVEMQLETVFHLQEMTNREYLEDEDAEEPDDFVISLTSQITRREEGMAPFISGEKRNYVFGGISGIAANASIKALADMRSINLFGVQQICRNTIAVEQAMAAIPYIDGETVQQNLDRVRTYFELLNMPFEALLAFIAEHDQMFTPTEYSNLLKVNVPGRDTPSDAQSRLLEILSH |
| binds | exocyst complex subunit SEC5B (protein, UniProt F4HWE6 1-1090) MSSSDDLDEDELLQMALKEQSQRDVTYQKPPSANSRKPVTNLVQQPRRQKRAAAPPSKGGAKASRKPSMDEDDESEVELLSISSGDEDEGNDRGRGGGGDGGGGRGRGGSGKERGRARKEDDRAWDGVEPDCWKRVNEAELARKVRDMRESRTAPSVTQNLDRKVSGADKKVVLTSLQSFPRGMECIDPLKLGIIDNKTLRLITESSESLSKAEKVDNALREKLVYTSDHFDPKLFISRIHQETSAADLESGALALKSDLKGRNLQRKQLVKDNFDCFVSCKTTIDDIESKLKRIEDDPDGSGTTHLFNCMKSVTSRANRAFEPLFERQAQAEKIRSVQGMLQRFRTLFNLPSIIRSSISKGEYDLAVREYKKAKSIALPSHVNLLKRVLEEVEKVMQEFKGTLYRSMEDPKIDFTSLENTVRLLLELEPESDPVWHYLNVQNHRIHGMLEKCTFDHEARMEILRNQVHERALSDAKWRQIQQNGVQLSDDTSSMEDNQVQVDQPLEESARREKDALRGRYIKILTAVIVYHLPTFWKTALSVFTGKFAKSSQVNDTSASKAEEKAEEARYSSHSLEEIAGMIRNTISVYEAKVQSTFHDFDESYILHPYMSDTIKEVSKACQAFEAKESAPHSAVMALRKVKVEITKIYIQRLCSWMRASTEEISKEETWIPVSILERNRSPYSISYLPLAFRSIIVSGMEQINMMILSLKGEAARSEDMFAHIEEILISVRLAFLNCFLDFAAHLEQIGADLSQRTTKRESWQNGYSNDHQEEQSINAPESVVDPHRQLLMILSNIGYCKDELASELYNKYKYTWLQSRRNDEDISDLQDLMMSFSGLGEKVLEHYTFAKANLIRTAATNYLLDSGIQWGAAPPVKGIRDAAVELLHTLVAVHAEVFAGAKPLLDKILGTLVEGLIDTFLSLLDENRSDDLSSIDANGFCQLMLELEYFETILKPYLTVDATESLKSLQGAVLEKAIESISETVENNPGGHQRKPTRGSEDAISDDKQSSVSPDDLLALAQQCTSGMLQLELEKTRLNSACFIETIPLDPVPPVAKAAYSRTSTDSPSRNYRESQPMGSPVQARPRRR |
